Reference: PMC11354406

Test system: DNA endonuclease Q (EndoQ) (Pyrococcus furiosus)
Experiment: stopped-flow FRET
Settings: no significant cleavage; recombinant protein; protein details: N-terminal His tag (pET28c); label: 5'-FAM strand 1, 5'-BHQ1 strand 2

“GCTCACGTACAGAGCTG (double strand) [C/G (undamaged)]”: binds.

For at least one entry, the source does not settle the construct or the ends of the probe.
